This is an account of results in patent US20040210041A1.

Protein sequences, listed by entry. Tags and fused reporters are not part of them. Lines headed by an entry give the natural chain unless they say otherwise; changes in a name come on top. Residues count along the entry.
UniProt P35968, residues 20-1356: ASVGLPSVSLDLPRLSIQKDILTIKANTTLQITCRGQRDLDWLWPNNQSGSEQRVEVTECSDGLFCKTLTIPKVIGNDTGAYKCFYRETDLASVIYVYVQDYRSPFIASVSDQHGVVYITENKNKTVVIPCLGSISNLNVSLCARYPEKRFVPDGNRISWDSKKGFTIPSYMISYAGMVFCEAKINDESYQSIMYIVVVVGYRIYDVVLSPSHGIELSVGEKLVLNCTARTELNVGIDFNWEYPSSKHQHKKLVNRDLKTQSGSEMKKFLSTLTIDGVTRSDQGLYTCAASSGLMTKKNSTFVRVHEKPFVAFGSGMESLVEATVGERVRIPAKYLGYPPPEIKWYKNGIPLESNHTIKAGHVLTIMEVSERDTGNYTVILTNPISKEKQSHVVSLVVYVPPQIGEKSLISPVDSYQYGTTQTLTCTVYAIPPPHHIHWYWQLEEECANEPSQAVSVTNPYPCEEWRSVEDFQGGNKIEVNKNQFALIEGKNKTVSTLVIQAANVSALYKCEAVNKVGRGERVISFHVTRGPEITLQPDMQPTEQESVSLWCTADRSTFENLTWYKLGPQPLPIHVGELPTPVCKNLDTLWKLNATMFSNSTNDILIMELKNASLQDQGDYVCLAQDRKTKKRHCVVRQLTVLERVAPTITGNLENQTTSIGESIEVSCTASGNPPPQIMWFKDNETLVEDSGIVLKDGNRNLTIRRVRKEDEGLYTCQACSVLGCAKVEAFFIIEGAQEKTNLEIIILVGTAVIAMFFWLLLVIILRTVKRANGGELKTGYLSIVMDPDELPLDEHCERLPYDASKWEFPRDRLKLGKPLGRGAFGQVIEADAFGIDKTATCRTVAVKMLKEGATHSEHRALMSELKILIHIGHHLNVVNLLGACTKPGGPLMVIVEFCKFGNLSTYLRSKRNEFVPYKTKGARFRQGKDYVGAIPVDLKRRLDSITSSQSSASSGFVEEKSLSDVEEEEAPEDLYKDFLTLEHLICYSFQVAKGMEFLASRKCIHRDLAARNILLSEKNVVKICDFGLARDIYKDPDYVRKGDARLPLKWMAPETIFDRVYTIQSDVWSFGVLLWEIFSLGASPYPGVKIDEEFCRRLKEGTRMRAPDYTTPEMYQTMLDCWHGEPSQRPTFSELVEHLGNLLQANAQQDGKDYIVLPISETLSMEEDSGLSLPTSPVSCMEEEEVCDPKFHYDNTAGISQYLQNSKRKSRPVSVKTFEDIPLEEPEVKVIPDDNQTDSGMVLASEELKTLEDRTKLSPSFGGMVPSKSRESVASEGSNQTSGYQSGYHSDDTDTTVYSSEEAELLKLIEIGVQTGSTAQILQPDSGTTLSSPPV
UniProt P15692: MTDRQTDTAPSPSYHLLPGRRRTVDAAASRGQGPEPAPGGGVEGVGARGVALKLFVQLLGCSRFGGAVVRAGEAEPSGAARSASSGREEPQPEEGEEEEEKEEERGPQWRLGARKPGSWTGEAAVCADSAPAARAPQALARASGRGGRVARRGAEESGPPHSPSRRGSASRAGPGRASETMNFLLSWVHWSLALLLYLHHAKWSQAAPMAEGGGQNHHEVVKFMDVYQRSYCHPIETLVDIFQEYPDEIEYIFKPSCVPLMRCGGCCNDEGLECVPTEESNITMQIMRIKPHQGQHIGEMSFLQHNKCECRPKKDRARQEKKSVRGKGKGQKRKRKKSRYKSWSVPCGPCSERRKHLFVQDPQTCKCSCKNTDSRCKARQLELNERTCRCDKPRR

Experiment [1] has as its target KDR (VEGFR-2), full-length receptor on cells (human) (UniProt P35968). Kind of experiment: peptide-conjugated microbubbles on KDR-transfected 293H cells with free dimer 1-1000 nM.
Experiment [2] addresses KDR/VEGF complex on KDR-transfected 293H cells (human) (UniProt P35968+P15692). The experiment is described as follows: peptide/125I-streptavidin complex on KDR- vs mock-transfected 293H cells with VEGF.

No constants are given. Whether binding was seen depends on the method and setting. Some binding calls cover weakened binding; strength is not graded here.

For AQDWYYDEILSMADQLRHAFLSGG (conjugated to microbubbles; derivative not described) [P13 conjugated to microbubbles], in experiment [1], the binding entry was “binds”.

As for AGPGPCKGYMPHQCWYMGTGGGK (Ac-; C-terminal Lys(Biotin-JJ)-NH2) [P30-XB/125I-streptavidin complex], in experiment [2], the binding result is “binds”.
